Measured values: PubChem BioAssay AID1745857 (National Center for Advancing Translational Sciences (NCATS), 2022)
Hit rate of the full screen: of about 120,000 compounds, about 370 (0.31%) were called active. These results got no clear call from the source, so the numbers are uncertain. The call rests on the fitted dose curve.

assay: Primary qHTS Assay for Foot and Mouth Disease Virus Antivirals against NCGC Sytravon and CBC Compound Libraries: Renilla Luciferase Signal; conditions: FMDV replicon cells; further: nearly all actives have a fitted effect of over 55% in size
Potency means the concentration at half of the fitted maximal effect.

Compound	Potency
Fc1ccc(CN2CCC(Nc3ccccc3Cl)CC2)cc1	inconclusive: 39.8 µM
